Library screen at single concentrations

Amino acid sequences for entries named in this document (tags omitted). Residues count along the entry.
UniProt Q4DA54, 1-478: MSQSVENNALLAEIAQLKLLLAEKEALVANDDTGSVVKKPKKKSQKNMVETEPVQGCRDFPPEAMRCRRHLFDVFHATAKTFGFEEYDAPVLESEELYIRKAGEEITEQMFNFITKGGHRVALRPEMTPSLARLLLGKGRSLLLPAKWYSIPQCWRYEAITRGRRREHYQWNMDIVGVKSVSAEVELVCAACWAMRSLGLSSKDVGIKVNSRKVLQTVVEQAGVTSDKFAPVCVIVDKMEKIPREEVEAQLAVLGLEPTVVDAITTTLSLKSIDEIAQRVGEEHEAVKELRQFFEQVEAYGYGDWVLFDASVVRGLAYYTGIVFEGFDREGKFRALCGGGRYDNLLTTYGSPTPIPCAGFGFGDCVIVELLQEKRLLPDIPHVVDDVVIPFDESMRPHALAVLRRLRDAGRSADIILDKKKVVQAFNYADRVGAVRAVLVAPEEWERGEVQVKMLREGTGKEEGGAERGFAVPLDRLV
UniProt I6X8D2, whole entry: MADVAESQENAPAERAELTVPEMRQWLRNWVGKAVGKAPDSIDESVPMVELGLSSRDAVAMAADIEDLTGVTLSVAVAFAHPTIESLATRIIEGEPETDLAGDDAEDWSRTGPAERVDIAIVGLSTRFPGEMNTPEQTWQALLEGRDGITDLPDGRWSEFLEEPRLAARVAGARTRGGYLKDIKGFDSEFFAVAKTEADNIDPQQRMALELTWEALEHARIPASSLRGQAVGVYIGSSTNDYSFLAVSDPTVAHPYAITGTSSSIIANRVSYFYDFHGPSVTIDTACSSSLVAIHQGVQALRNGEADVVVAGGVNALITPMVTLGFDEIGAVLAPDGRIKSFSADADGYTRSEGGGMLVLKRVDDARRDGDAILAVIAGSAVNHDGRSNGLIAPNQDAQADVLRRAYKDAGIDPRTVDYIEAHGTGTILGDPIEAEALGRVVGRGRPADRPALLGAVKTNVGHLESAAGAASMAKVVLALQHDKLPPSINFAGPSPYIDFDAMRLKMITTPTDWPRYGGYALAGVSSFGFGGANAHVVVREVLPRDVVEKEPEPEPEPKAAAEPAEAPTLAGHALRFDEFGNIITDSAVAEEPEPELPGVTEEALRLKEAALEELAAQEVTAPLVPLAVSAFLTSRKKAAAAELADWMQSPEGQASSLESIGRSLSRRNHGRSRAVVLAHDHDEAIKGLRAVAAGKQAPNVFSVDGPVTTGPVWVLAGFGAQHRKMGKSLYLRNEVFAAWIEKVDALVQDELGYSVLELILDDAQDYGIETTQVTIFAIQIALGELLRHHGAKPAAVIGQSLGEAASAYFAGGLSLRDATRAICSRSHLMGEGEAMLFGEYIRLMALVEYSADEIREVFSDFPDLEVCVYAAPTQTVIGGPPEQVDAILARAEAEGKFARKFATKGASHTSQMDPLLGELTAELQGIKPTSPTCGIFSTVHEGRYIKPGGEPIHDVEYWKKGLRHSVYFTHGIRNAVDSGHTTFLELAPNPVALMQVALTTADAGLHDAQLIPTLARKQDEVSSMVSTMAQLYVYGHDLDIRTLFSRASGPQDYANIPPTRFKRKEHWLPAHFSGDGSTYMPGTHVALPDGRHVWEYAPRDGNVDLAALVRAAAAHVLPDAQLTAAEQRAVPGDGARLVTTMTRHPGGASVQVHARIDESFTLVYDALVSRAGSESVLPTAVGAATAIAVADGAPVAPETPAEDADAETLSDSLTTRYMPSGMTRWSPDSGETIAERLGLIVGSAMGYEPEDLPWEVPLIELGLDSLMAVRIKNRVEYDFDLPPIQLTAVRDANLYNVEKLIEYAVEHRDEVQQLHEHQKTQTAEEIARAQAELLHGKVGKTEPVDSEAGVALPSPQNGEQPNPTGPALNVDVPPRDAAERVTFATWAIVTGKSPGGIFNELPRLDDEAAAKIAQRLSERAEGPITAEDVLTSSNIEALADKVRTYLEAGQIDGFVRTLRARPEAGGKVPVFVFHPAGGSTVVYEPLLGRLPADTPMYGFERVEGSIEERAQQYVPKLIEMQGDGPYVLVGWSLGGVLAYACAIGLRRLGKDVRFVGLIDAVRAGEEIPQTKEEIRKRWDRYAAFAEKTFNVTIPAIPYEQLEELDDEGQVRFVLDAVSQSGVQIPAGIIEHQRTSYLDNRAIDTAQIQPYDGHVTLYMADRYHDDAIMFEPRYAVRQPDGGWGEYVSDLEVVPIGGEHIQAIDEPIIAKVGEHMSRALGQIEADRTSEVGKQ
UniProt P9WNZ1, whole entry: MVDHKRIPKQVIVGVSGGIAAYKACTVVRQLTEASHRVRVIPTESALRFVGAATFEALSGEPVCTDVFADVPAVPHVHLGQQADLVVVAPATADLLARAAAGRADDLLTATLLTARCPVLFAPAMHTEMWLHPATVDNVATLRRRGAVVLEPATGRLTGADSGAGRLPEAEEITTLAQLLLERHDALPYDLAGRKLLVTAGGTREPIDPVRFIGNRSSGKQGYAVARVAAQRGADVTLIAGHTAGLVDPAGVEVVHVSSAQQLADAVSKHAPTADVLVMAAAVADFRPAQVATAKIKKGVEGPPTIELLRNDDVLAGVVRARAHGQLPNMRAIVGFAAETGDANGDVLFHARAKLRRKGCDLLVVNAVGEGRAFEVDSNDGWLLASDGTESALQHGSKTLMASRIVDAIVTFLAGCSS
UniProt Q8IDJ8, 1-583: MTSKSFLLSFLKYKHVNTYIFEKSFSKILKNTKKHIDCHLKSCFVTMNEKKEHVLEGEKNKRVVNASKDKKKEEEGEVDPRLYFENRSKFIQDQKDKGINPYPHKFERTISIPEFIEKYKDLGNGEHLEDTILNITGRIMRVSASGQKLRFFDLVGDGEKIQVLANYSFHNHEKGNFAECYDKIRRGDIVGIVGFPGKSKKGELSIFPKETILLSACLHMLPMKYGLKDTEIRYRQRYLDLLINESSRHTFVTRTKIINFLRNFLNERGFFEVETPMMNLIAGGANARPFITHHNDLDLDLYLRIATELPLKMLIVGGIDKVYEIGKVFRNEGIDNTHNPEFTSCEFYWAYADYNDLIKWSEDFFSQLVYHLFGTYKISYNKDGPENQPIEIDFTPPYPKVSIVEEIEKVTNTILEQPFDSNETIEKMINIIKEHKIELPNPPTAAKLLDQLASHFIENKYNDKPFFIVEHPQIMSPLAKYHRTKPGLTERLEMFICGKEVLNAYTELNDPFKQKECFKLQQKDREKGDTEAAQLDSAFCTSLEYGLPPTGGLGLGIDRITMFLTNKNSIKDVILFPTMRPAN
UniProt P9WFT3, whole entry: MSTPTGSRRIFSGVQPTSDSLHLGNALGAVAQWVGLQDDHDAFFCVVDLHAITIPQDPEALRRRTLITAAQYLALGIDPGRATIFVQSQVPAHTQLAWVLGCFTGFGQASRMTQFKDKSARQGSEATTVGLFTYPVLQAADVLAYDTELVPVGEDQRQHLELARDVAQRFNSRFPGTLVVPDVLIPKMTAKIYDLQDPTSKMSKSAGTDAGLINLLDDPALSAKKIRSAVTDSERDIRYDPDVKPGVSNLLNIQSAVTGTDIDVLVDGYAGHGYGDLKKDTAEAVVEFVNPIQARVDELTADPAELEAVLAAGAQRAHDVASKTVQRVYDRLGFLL

Measurements from “University of Dundee, Small-Polar-MMV Screening Library” (2021), ChEMBL document CHEMBL3988442.

Values are the deposited “Percent Effect”, in %.
How 0% and 100% were set is not recorded. Most values in the screen are low, and negative values occur.
The compounds are a random part of those screened.
Two or more numbers in one place are separate tests of the same structure; such repeats can differ widely.
A dash means the value is not listed here; it may have been measured.

TcHisRS: 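Histidine-tRNA ligase, Trypanosoma cruzi CL Brener (UniProt Q4DA54). Enzyme assay of histidyl-tRNA synthetase; the read-out is not stated. Compounds at 30 µM. The record gives no direction; compounds that gave an IC50 in retests scored well above the rest, so higher reads as stronger inhibition. About 69,000 compounds were tested under these conditions; 0.045% (about 31) showed 50% or more at least once.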
Pks13 thioesterase: 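Polyketide synthase Pks13, Mycobacterium tuberculosis (UniProt I6X8D2). Enzyme assay of the thioesterase domain of polyketide synthase 13; the read-out is not stated. Compounds at 30 µM. Higher reads as stronger inhibition (inferred from which compounds were picked for retests). Size under these conditions: about 67,000 compounds, about 300 of them at 50% or above in at least one test.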
CoaBC: 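Enzyme assay of CoaBC with a phosphate dye (Biomol Green) read at 650 nm. Target: Coenzyme A biosynthesis protein CoaBC, Mycobacterium tuberculosis (UniProt P9WNZ1). Concentration: 30 µM. Direction is inferred from only a few compounds that gave an IC50; most scored high, so higher reads as stronger inhibition. Most strong results did not repeat in a second test. About 67,000 compounds were tested under these conditions; 0.06% (about 40) showed 50% or more at least once.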
Leishmania in macrophages: 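Cell assay of Leishmania donovani living inside macrophages; the read-out is not stated. Concentration: 30 µM. Higher reads as stronger inhibition (inferred: compounds with an IC50 in retests scored well above the rest). About 69,000 compounds were tested under these conditions; 1.5% (about 1,000) showed 50% or more at least once.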
PfKRS1: 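Enzyme assay of the cytosolic lysyl-tRNA synthetase in 384-well plates, read by luminescence. Target: Lysine-tRNA ligase, Plasmodium falciparum 3D7 (UniProt Q8IDJ8). Compounds at 30 µM. Higher reads as stronger inhibition, judged from the few compounds that gave an IC50. About 69,000 compounds were tested under these conditions; 0.071% (about 49) showed 50% or more at least once.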
MtTrpRS: 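Enzyme assay of tryptophanyl-tRNA synthetase; the read-out is not stated. Target: Tryptophan-tRNA ligase, Mycobacterium tuberculosis (UniProt P9WFT3). Concentration: 10 µM. Higher most likely means stronger inhibition; the record gives no direction and few retests gave an IC50. Size under these conditions: about 65,000 compounds, about 64 of them at 50% or above in at least one test.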

With Cn1cnnc1-c1ccnc(NCc2ccc3c(c2)OCCO3)c1 the screen gave TcHisRS: 5%; Pks13 thioesterase: 2.601%; CoaBC: 2.724%; Leishmania in macrophages: -11.35%; PfKRS1: 10.22%; MtTrpRS: 0.7597%. Result for CNC(=O)c1ccc2c(c1)C1(CCN(CCOC)CC1)C(=O)N2 was TcHisRS: 9.346%; Pks13 thioesterase: -14.52%; CoaBC: -3.704%; PfKRS1: -1.528%; MtTrpRS: -5.172%. With Cl.NCC1(c2cccc(Br)c2)CCOCC1 the screen gave Leishmania in macrophages: 38.68%. For Cc1ccc(NC2CCCN(CCCc3ccccc3)C2)nn1 (configuration not stated) the result was TcHisRS: 10.1%; Pks13 thioesterase: -13.07%; CoaBC: 0%; Leishmania in macrophages: -11.62%; PfKRS1: 1.033%; MtTrpRS: 5.161%. O=C(C1CCC1)N1CCCC(c2ccnc(Nc3cnccn3)n2)C1 (configuration not stated) gave TcHisRS: 5.319%; CoaBC: 1.225%; Leishmania in macrophages: -12.41%; PfKRS1: 7.586%. Result for O=C(O)C(F)(F)F.[H][C@@]12COC[C@]1(CNC(=O)CC1CC1)CN(c1ncc(F)cn1)C2 was Leishmania in macrophages: -5.816%. Result for CC(C)C(CCO)NC(=O)Nc1cc(F)ccc1-n1cccn1 (configuration not stated) was TcHisRS: -6.349%; Pks13 thioesterase: -1.667%; CoaBC: 0.6198%; Leishmania in macrophages: -50.18%; PfKRS1: 5.745%; MtTrpRS: -2.081%. For COc1ccccc1CC(=O)N1CC[C@@]2(CCCO2)[C@@H](OC)C1 the result was TcHisRS: 6.452%; Pks13 thioesterase: -11.24%; CoaBC: 2.749%; Leishmania in macrophages: 3.078%; PfKRS1: -7.027%; MtTrpRS: -5.083%.

With Cc1ncc(CNc2ccc(C(=O)NCc3ccco3)cc2C)s1 the screen gave TcHisRS: 3.03%; Pks13 thioesterase: 20.76%; CoaBC: 2.593%; Leishmania in macrophages: -18.29%; PfKRS1: 1.643%; MtTrpRS: -4.311%. CN(C)CCCNC(=O)c1ccc(N(C)S(C)(=O)=O)cc1Cl read TcHisRS: 4.933%; Pks13 thioesterase: 0.7863%; CoaBC: 2.538%; Leishmania in macrophages: -2.504%; PfKRS1: -0.1436%; MtTrpRS: 5.746%. [H][C@@]12CS(=O)(=O)C[C@]1([H])N(S(=O)(=O)c1ccccc1OC)CCN2C read Leishmania in macrophages: 6.763%. CN(Cc1ccco1)Cc1cncc2c1CCN(c1ncccn1)C2.Cl.Cl gave Leishmania in macrophages: 9.865%. For COCCN1CCC2(CC1)CC(NC(=O)C(C)C)c1ccccc1O2.O=C(O)C(F)(F)F (configuration not stated) the result was Leishmania in macrophages: 8.728%. Cc1nc(-c2ccoc2)n(CC(=O)N(C)CC(C)C)c1C gave TcHisRS: 7.955%; Pks13 thioesterase: 30.77%; CoaBC: -0.7282%; Leishmania in macrophages: -15.78%; PfKRS1: 0.1305%. CCNC(=O)N1C[C@@H]2OCC(=O)N(Cc3cccnc3)[C@@H]2C1 gave TcHisRS: 3.261%; Pks13 thioesterase: -32.76%; CoaBC: 16.56%; PfKRS1: 1.967%; MtTrpRS: -0.3794%. For COC(=O)C1=NN2C(=NS(=O)(=O)c3ccccc32)N1 the result was TcHisRS: -0.6135%; Pks13 thioesterase: -0.1548%; CoaBC: -1.921%; Leishmania in macrophages: 2.083%; PfKRS1: -1.972%; MtTrpRS: -7.969%.

Result for CCn1ncc2c1C(COCC1CC1)CN(C(=O)c1cccs1)C2 (configuration not stated) was TcHisRS: 2.479%; Pks13 thioesterase: -31.87%; CoaBC: 4.946%; Leishmania in macrophages: 22.09%; PfKRS1: 1.589%; MtTrpRS: 1.562%. Result for CN(Cc1noc(C2CC2)n1)C1CCN(CCn2cc(C#N)cn2)C1 (configuration not stated) was TcHisRS: 1.433%; Pks13 thioesterase: -16.48%; CoaBC: 6.335%; Leishmania in macrophages: 19.52%; PfKRS1: -4.174%; MtTrpRS: 17.94%. For Cc1ccc(CN2CCC3(CC2)C(c2ccccc2)CC(=O)N3C)o1.O=C(O)C(F)(F)F (configuration not stated) the result was Leishmania in macrophages: 34.04%. Result for CC(C)C(C)NC(=O)Nc1ccccc1CN1CCOCC1 (configuration not stated) was TcHisRS: 0.8475%; Pks13 thioesterase: -19.58%; CoaBC: 0.8811%; Leishmania in macrophages: 29.23%; PfKRS1: 0.6335%; MtTrpRS: 0.6706%. For Cc1cc(O)ncc1NS(=O)(=O)c1cccc(F)c1F the result was TcHisRS: 7.317%; Pks13 thioesterase: -2.53%; CoaBC: 6.709%; Leishmania in macrophages: -7.378%; PfKRS1: 2.224%; MtTrpRS: 11.83%. For CC(C)Cc1nc(CO)n(-c2ccc3c(c2)OCCO3)n1 the result was TcHisRS: 5.128%; Pks13 thioesterase: -23.61%; CoaBC: 24.57% and -0.5155%; Leishmania in macrophages: 17.08%; PfKRS1: -0.5805%; MtTrpRS: 18.43%. For Cc1cccc(C(=O)N2C[C@@H]3[C@H](CC(=O)N4CCCC4)[C@@H]3C2)n1 the result was TcHisRS: 0.9709%; Pks13 thioesterase: 35.85%; CoaBC: 2.036%; PfKRS1: 3.625%; MtTrpRS: -0.08084%.

Some entries from above, unchanged:

| SMILES | TcHisRS | Pks13 thioesterase | CoaBC | Leishmania in macrophages | PfKRS1 | MtTrpRS |
|---|---|---|---|---|---|---|
| `CCn1ncc2c1C(COCC1CC1)CN(C(=O)c1cccs1)C2` (configuration not stated) | 2.479 | -31.87 | 4.946 | 22.09 | 1.589 | 1.562 |
| `[H][C@@]12CS(=O)(=O)C[C@]1([H])N(S(=O)(=O)c1ccccc1OC)CCN2C` | - | - | - | 6.763 | - | - |
| `CN(C)CCCNC(=O)c1ccc(N(C)S(C)(=O)=O)cc1Cl` | 4.933 | 0.7863 | 2.538 | -2.504 | -0.1436 | 5.746 |